Data: article PMC3525571
These are yes or no findings as the source states them, for the method shown. In cells and extracts the contact can be indirect. Some entries that bind do so weakly or less than the wild type.

B1: recombinant CD93 domain 1 protein (rCD93D1) (domain or fragment, UniProt Q9NPY3 22-177)
chain: TGADTEAVVCVGTACYTAHSGKLSAAEAQNHCNQNGGNLATVKSKEEAQHVQRVLAQLLRREAALTARMSKFWIGLQREKGKCLDPSLPLKGFSWVGGGEDTPYSNWHKELRNSCISKRCVSLLLDLSQPLLPSRLPKWSEGPCGSPGSPGSNIEG

These molecules were tested against EGF receptor (EGFR) (human (endogenous in HUVECs)) (UniProt P00533) (assay: co-IP; subconfluent HUVECs starved in serum-free M199 for 4 h, incubated with 0.5 µg recombinant protein for 30 min; EGFR immunoprecipitated with EGFR Ab, recombinant proteins detected by immunoblot with c-Myc Ab; rabbit IgG as negative control; only the binder purified).

binding	Molecule
binds	recombinant soluble CD93 protein with domains 1, 2 and 3 (rCD93D123) (from UniProt Q9NPY3 22-580) (domain or fragment)
binds	recombinant soluble CD93 protein with domains 2 and 3 (rCD93D23) (from UniProt Q9NPY3 258-580) (domain or fragment)
no binding (tested: 0.5 µg of rCD93D1)	B1
